# Source: PubChem BioAssay AID1347423 (Functional Genomics Laboratory (NCATS/FGL), 2020)
# The campaign covered roughly 52,000 sequences. About 210 (0.4%) were called active.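 Rule for the calls: active = gene whose silencing raises cell survival under the drug, median off-target-corrected z-score across its silencing RNAs 2 or more; inactive = the rest.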 The list shows a part of the results.
# Assay: Resistance to Poly (ADP-Ribose) Polymerase inhibitor: Gene Identification via Genome-wide siRNA Screen
# Conditions: mouse BRCA2 R2336H ES cells, olaparib, CellTiter-Glo viability; hits give high values
# Procedure, shortened: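 Mouse BRCA2 R2336H ES cells were reverse-transfected with siRNA (20 nM final), treated at 48 h with 500 nM olaparib, and read by CellTiter-Glo after 72 h. Scores: MAD-based z per siRNA, median per gene, seed off-target correction.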
row,Sequence,z-score
1,GCUCCAACACGAGAAGAAATT against Zfp598,inactive: -0.685
2,GUAGUGAAAGCUUUUGGGUTT against V1re2,inactive: 0.0897
3,CCGGUUUCGAAAGAGAACUTT against Irs1,inactive: 1.15
4,GGGAUAAAGAUGAAGAACUTT against 2010200O16Rik,inactive: -0.869
5,GGAAGGAGGACAGAGGAAUTT against Tmem19,inactive: 1.22
6,GGUGAGCACUAAAUGCAGATT against Cldn16,inactive: 0.00946
7,GGAGUAGCUGUACUCAACATT against Olfr790,inactive: -3
8,GGAAUGAGAGAACUUGAUATT against 2610027O18Rik,inactive: -0.669
9,GCAGCCUCAACAACAACCCTT against 3732413I11Rik,inactive: -0.44
10,GGAAAUAUGCGAAAGCUGATT against Seh1l,inactive: -2.34
11,GGACUUUGAAAAGAGAAUUTT against Polb,inactive: -0.703
12,GAAAGUUUACGGGAAAUCUTT against Klf13,inactive: 1.09
13,GGAAGUUAGUUUCGUUUUATT against 2610304G08Rik,inactive: -0.284
14,CCCAAGGAGUACAAUAAAATT against 4930432H15Rik,inactive: -0.0751
15,CAUUCGUUGAAGAAAGUGATT against MGI:2684414,inactive: -0.451
16,GGCUGAUUUUGAAAAGCAATT against Rdh5,inactive: 0.92
17,GCAUCACGGAUUCGAAUUGTT against Dgkz,inactive: 0.883
18,GGUCCAUUAGCUAAAUCUUTT against C130067A03Rik,inactive: 0.757
19,GGUAUUCUAUAAGCUCCUUTT against 6030446I19Rik,inactive: -0.635
20,CCCAAUAAAACUUCCGGGATT against BC021608,inactive: 0.531
21,GCAAUAGGAAGACCACUUATT against 5930416I19Rik,inactive: -1.93
22,GCUGAACUAUCCCUUAGUGTT against E430018M08Rik,inactive: -0.0179
23,GCCUGGUUACAGCAUUAACTT against BC057371,inactive: 0.317
24,GGCAUCCUUGACAUAACCUTT against Olfr586,inactive: -0.596
25,CGAACAGAAACAGUUAUUATT against Gbp2,inactive: 0.769
26,GUAUCCUUUUUAUAGCCUATT against V1rb4,inactive: 0.24

row,Sequence,z-score
1,GCUAUGUGGCCAUAGAUUATT against Hemk1,inactive: 1.85
2,GGCCUUUGAUGACAUGUACTT against U46068,inactive: -0.463
3,GGAAGACCCUUCUUAUGACTT against Fli1,inactive: 0.174
4,CCCUCAAGGAUUUAGCCAUTT against D030014N22Rik,inactive: 0.919
5,GGAAUUUGAAGCUGUCACUTT against Spata2,inactive: -1.71
6,GGCUGGUUGGAAGGAAAAUTT against 6330505F04Rik,inactive: -1.69
7,GGUCUUAGAUAAUGUUAGATT against Gpr26,inactive: 0.245
8,GGAGUGCACUGGAAAACACTT against Rasef,inactive: -0.451
9,GGUGUUUAAAUACAACCGATT against Ptgis,inactive: 2.23
10,GCUUUCUGGGUAACAUAGGTT against 4933400K24Rik,inactive: 1.54
11,GGCCAAUGAAGACCCAGAATT against 4930467B06Rik,inactive: 1.96
12,GGACAGGAAGGUCAUCCCUTT against Sntb2,inactive: 2.67
13,GCAUCUUCCACAUUCGCUCTT against Olfr945,inactive: 0.597
14,GGAGUGGUCUGACAGAAGATT against AU040950,inactive: 0.12
15,GGAUCAGGUACACAGCAAGTT against Dci,inactive: -0.154
16,CCCUCUGUUCGAGAAGAGGTT against Rpl7a,inactive: -2.82
17,GGUGUACCCAGUACUGCCATT against Cdk2,inactive: -0.498
18,CGUGUUUGAUCACUACUCUTT against 1810019A08Rik,inactive: -1.66
19,GGAGGAAGCCAUCAUCAUGTT against Grim19,inactive: -1.04
20,CCUCGAGAGACUCAUACUGTT against Card12,inactive: 0.979
21,GGUGAGAAGGAUUUGUAAATT against Clecsf8,inactive: 0.0846
22,CCGUAAUUUACCAAAGAGATT against 1110007A13Rik,inactive: 0.906
23,GGCAUUUUUCGGAUUGACATT against Mmp27,inactive: 0.756
24,CCUGCCAGAGCCGGAAUUUTT against Nrp,inactive: 0.736
25,GGACAUUGCUGCCUAUAUCTT against 6720463E02Rik,inactive: 0.793
26,GGUGAUCCUAAGAAAGUCCTT against Ireb2,inactive: 0.396

# An excerpt of these results, as tab-separated lines.
row	Sequence	z-score
22	GCUGAACUAUCCCUUAGUGTT against E430018M08Rik	inactive: -0.0179
23	GCCUGGUUACAGCAUUAACTT against BC057371	inactive: 0.317

# Remaining list, next part.

row,Sequence,z-score
1,GCACUCCAAGAUAUUAUGUTT against BC045600,inactive: 0.909
2,GGUGGUUGGUGGGUAUUUATT against Slc30a3,inactive: 0.0476
3,GGCUAAAAAGAGUAGACUATT against Irs1,inactive: 0.45
4,CACCUAAACCCAUUCCAGUTT against Dpm3,inactive: 0.523
5,GGAUGAACAUCAAAGAAGATT against Lace1,inactive: 0.897
6,CCUUCUACCUCACCUUACGTT against 4432406C05Rik,inactive: -0.696
7,GGUAUAUCCAUUCCAAAGATT against Osr2,inactive: -0.719
8,GGGACAACCUUACAUCGAUTT against Mpz,inactive: 1.62
9,GGAUGGAUCUAAAGACACUTT against 4930544M13Rik,inactive: -0.811
10,GCUGGCCUUUCUAAAAAAATT against Plekhm1,inactive: 0.148
11,CCCAAUCUCCAUCUAUGCCTT against Podxl,inactive: 0.468
12,GGAUUUGGCUUUGUAACUUTT against Hnrpa2b1,inactive: 0.264
13,CCGAUCACUCAUGGUUGACTT against Sra1,inactive: -0.904
14,GGAAAAAGGCAUCAAGUAUTT against Dhfr,inactive: 0.449
15,CCGACACAUCAUGUUGACGTT against Zbtb9,inactive: -0.459
16,CGCGUUUCGUGUUUCAAAATT against Mus81,inactive: 0.218
17,GGAUUUUGACAGUCUGUGUTT against Pp11r,inactive: 1.17
18,CCUUAGGAUGACCUAAGGGTT against 1110063F24Rik,inactive: 0.771
19,GCUAUGAACCUCUAGGCAUTT against Bcl6b,inactive: 1.46
20,CGCCGCAGUAUUAAUGGCUTT against Nxph4,inactive: 3.47
21,GGUGAGAUUUGUGGCUUUATT against Clstn1,inactive: -0.457
22,GACCACUUUAUGGAUGAGUTT against Stx1b2,inactive: -0.0604
23,GCUACAAUUGGCCUUAUCUTT against B930007M17Rik,inactive: 0.294
24,GGCUUUAGCUUACCAGAUGTT against Abcd2,inactive: -2.07
25,GGCAUGGAAUCUGUUGUACTT against Olfr604,inactive: -0.384
26,CCCAUAGGGCUGAGGAACATT against Zfp53,inactive: -0.39

# Some values from the entries so far.
# GGCUAAAAAGAGUAGACUATT against Irs1 | z-score: inactive: 0.45
# GUAUCCUUUUUAUAGCCUATT against V1rb4 | z-score: inactive: 0.24
# GGAAAAAGGCAUCAAGUAUTT against Dhfr | z-score: inactive: 0.449
# CGCCGCAGUAUUAAUGGCUTT against Nxph4 | z-score: inactive: 3.47
# CAUUCGUUGAAGAAAGUGATT against MGI:2684414 | z-score: inactive: -0.451

# More results follow:

row,Sequence,z-score
1,GCGAGGUGCCAAUAUUUUCTT against Btbd9,inactive: 0.369
2,GGAGUUCUUGGUCUCUUUGTT against BC031353,inactive: 0.444
3,GCAGGCUUGUUCAAAUCCGTT against Pcm1,inactive: 0.309
4,GCAGGUACUAUUUGUGACGTT against Olfr30,inactive: -0.496
5,CCAGUGUUUCUCACUAAAUTT against Ube2j1,inactive: 0.902
6,CGUGUUUCGACACCUCCUUTT against Trar3,inactive: -1.47
7,GGAAGGAUGUAAGUUGUCCTT against D11Ertd530e,inactive: 0.37
8,GGAUAUCCCAGACCCAUCATT against A230098A12Rik,inactive: 1.11
9,GGUCAAAACUUCCAAUUGATT against Hmx3,inactive: 0.452
10,CGGGCAAGCUCCAAAUGAGTT against 1110004E09Rik,inactive: -0.466
11,GGAAAACAAUCUCCUUCAATT against Olfr1260,inactive: 0.41
12,GGAGAACAUUGUUAUCUCGTT against Ngef,inactive: 0.0707
13,GCCUGUCAGAUAAGUUUAATT against 2400008B06Rik,inactive: -0.931
14,GGGUAUUAAGCAGGGAUCGTT against 1810009A15Rik,inactive: -1
15,GGGACAUGAAGGACACCAUTT against Olfr854,inactive: -1.38
16,GGAUGAGGACGAGUUCGUUTT against C79127,inactive: -2.38
17,GGAAGACCUGAUUGGAAAATT against Trpm1,inactive: 0.553
18,GGCGAACCUCUUCUCUGGATT against Glcci1,inactive: -1.07
19,CGUGAUGGGACUUGAGAAGTT against Epdd1,inactive: -1.04
20,GGAAAACUCCUCCUUAAUUTT against Wsb1,inactive: 1.66
21,GGGAGCAACAGAGAGCUUUTT against Olfr212,inactive: -1.7
22,GGCACUAAAGCCAAAGUUCTT against Cldn11,inactive: 0.0201
23,GGAUGAAUGGAGAACUGAATT against AI173486,inactive: -1.2
24,CCUGACGAUUGAGUAUCAUTT against D2Ertd435e,inactive: -1.85
25,GGAAUUUUUUCUUGAUGGATT against Tubgcp5,inactive: 0.628
